# In the supplement of paper PMC4604168 (melanoma cell lines):
# Some of the results follow. Many values rest on one well or one pass, so single values are uncertain.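 Cells were imaged in 1,536-well plates, and nuclei stained with an antibody against cleaved PARP were counted against all DNA-stained nuclei to give the apoptosis fraction. Screening doses were chosen to leave most cells alive, and resting and induced cleaved-PARP levels differ strongly between cell lines.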
# Tests used:
# Test in all cases: cleaved PARP positive nuclei fraction relative to DMSO control; melanoma cells; higher = more apoptosis
# Settings in all cases: library dose: low library concentration; 72 h
# MZ2-MEL = tested on: MZ2-MEL
# MeWo = tested on: MeWo
# RPMI7951 = tested on: RPMI7951
# RVH-421 = tested on: RVH-421
# SkMel28 = tested on: SkMel28
# SkMel2 = tested on: SkMel2
# SkMel30 = tested on: SkMel30
# UACC62 = tested on: UACC62
SMILES,cleaved PARP positive nuclei fraction (MZ2-MEL),cleaved PARP positive nuclei fraction (MeWo),cleaved PARP positive nuclei fraction (RPMI7951),cleaved PARP positive nuclei fraction (RVH-421),cleaved PARP positive nuclei fraction (SkMel28),cleaved PARP positive nuclei fraction (SkMel2),cleaved PARP positive nuclei fraction (SkMel30),cleaved PARP positive nuclei fraction (UACC62)
"NC1(c2ccc(-c3nc4ccn5c(=O)[nH]nc5c4cc3-c3ccccc3)cc2)CCC1 + Nc1cccc2c1CN(C1CCC(=O)NC1=O)C2=O [lenalidomide] (first compound 0.4 µM, partner dose 1 µM)",27.9%,64.7%,53.7%,134%,181%,15.2%,38.2%,269%
"COc1ccc(C2=N[C@@H](c3ccc(Cl)cc3)[C@@H](c3ccc(Cl)cc3)N2C(=O)N2CCNC(=O)C2)c(OC(C)C)c1 [Nutlin-3] + CNC(=O)c1cc(Oc2ccc(NC(=O)Nc3ccc(Cl)c(C(F)(F)F)c3)cc2)ccn1 [sorafenib] (first compound 0.1 µM, partner dose 0.4 µM)",53.7%,50.4%,80.1%,234%,83.6%,61.6%,87.6%,82.4%
"Cn1sc(=O)n(Cc2ccccc2)c1=O + CNC(=O)c1cc(Oc2ccc(NC(=O)Nc3ccc(Cl)c(C(F)(F)F)c3)cc2)ccn1 [sorafenib] (first compound 0.4 µM, partner dose 0.4 µM)",150%,67.6%,63.2%,99.6%,44%,48.4%,34.8%,90.4%
"CCCCCCCCc1ccc(CCC(N)(CO)CO)cc1 [fingolimod] + C[C@]1(c2nc3c(C(N)=O)cccc3[nH]2)CCCN1 [Veliparib] (first compound 2 µM, partner dose 1.4 µM)",56.7%,73.3%,118%,127%,49.4%,130%,176%,218%
"CC1(C)CCC(c2ccc(Cl)cc2)=C(CN2CCN(c3ccc(C(=O)NS(=O)(=O)c4ccc(N[C@H](CCN5CCOCC5)CSc5ccccc5)c(S(=O)(=O)C(F)(F)F)c4)cc3)CC2)C1 + NC1(c2ccc(-c3nc4ccn5c(=O)[nH]nc5c4cc3-c3ccccc3)cc2)CCC1 [MK2206] (first compound 0.4 µM, partner dose 0.4 µM)",321%,348%,616%,89.1%,63.2%,166%,229%,109%
"Cn1cnc2c(F)c(Nc3ccc(Br)cc3Cl)c(C(=O)NOCCO)cc21 [selumetinib] + CC(=O)c1c(C)c2cnc(Nc3ccc(N4CCNCC4)cn3)nc2n(C2CCCC2)c1=O [palbociclib] (first compound 0.015 µM, partner dose 0.04 µM)",211%,42.8%,113%,144%,159%,93%,238%,324%
"COc1ccc(C2=N[C@@H](c3ccc(Cl)cc3)[C@@H](c3ccc(Cl)cc3)N2C(=O)N2CCNC(=O)C2)c(OC(C)C)c1 [Nutlin-3] + CC(C)C[C@H](NC(=O)[C@H](Cc1ccccc1)NC(=O)c1cnccn1)B(O)O [Bortezomib] (first compound 0.1 µM, partner dose 0.001 µM)",88.7%,90.8%,104%,185%,88.6%,108%,102%,57.9%
"CCCCCCCCc1ccc(CCC(N)(CO)CO)cc1 [fingolimod] + Nc1nc(F)nc2c1ncn2[C@@H]1O[C@H](CO)[C@@H](O)[C@@H]1O [fludarabine] (first compound 2 µM, partner dose 0.2 µM)",104%,5090%,124%,231%,106%,809%,668%,202%
"C[C@@H](N)c1ccc(C(=O)Nc2ccnc3[nH]ccc23)cc1 + NC(=O)c1ccc(N(C(N)=O)c2c(F)cccc2F)nc1-c1ccc(F)cc1F [VX702] (first compound 0.4 µM, partner dose 0.4 µM)",49.4%,242%,44.2%,373%,48.6%,138%,29.6%,97.1%
"CC(=O)O[C@@]12CO[C@@H]1C[C@H](O)[C@@]1(C)C(=O)[C@H](O)C3=C(C)[C@@H](OC(=O)[C@H](O)[C@@H](NC(=O)OC(C)(C)C)c4ccccc4)C[C@@](O)([C@@H](OC(=O)c4ccccc4)[C@H]21)C3(C)C [Docetaxel] + C=CCNC1=C2C[C@@H](C)C[C@H](OC)[C@H](O)[C@@H](C)/C=C(\C)[C@H](OC(N)=O)[C@@H](OC)/C=C\C=C(/C)C(=O)NC(=CC1=O)C2=O [Tanespimycin] (first compound 0.0001 µM, partner dose 0.002 µM)",950%,453%,538%,72.2%,207%,1070%,428%,598%
"CC1(C)CCC(c2ccc(Cl)cc2)=C(CN2CCN(c3ccc(C(=O)NS(=O)(=O)c4ccc(N[C@H](CCN5CCOCC5)CSc5ccccc5)c(S(=O)(=O)C(F)(F)F)c4)cc3)CC2)C1 + CN(c1ncccc1CNc1nc(Nc2ccc3c(c2)CC(=O)N3)ncc1C(F)(F)F)S(C)(=O)=O [PF562271] (first compound 0.4 µM, partner dose 0.08 µM)",108%,388%,215%,308%,119%,103%,191%,110%
"CC1(C)CCC(c2ccc(Cl)cc2)=C(CN2CCN(c3ccc(C(=O)NS(=O)(=O)c4ccc(N[C@H](CCN5CCOCC5)CSc5ccccc5)c(S(=O)(=O)C(F)(F)F)c4)cc3)CC2)C1 + Cc1cn(-c2cc(NC(=O)c3ccc(C)c(Nc4nccc(-c5cccnc5)n4)c3)cc(C(F)(F)F)c2)cn1 [nilotinib] (first compound 0.4 µM, partner dose 0.2 µM)",402%,410%,206%,151%,38.8%,150%,108%,85.9%
"C[C@@H](N)c1ccc(C(=O)Nc2ccnc3[nH]ccc23)cc1 + OCc1c[nH]c2ccccc12 [Indole-3-carbinol] (first compound 0.4 µM, partner dose 0.8 µM)",88.6%,352%,67.9%,202%,66.5%,183%,75.1%,128%
"C[C@@H](N)c1ccc(C(=O)Nc2ccnc3[nH]ccc23)cc1 + Cn1sc(=O)n(Cc2ccccc2)c1=O [TDZD-8] (first compound 0.4 µM, partner dose 0.4 µM)",296%,220%,107%,557%,65.7%,149%,63.5%,137%
"CC1(C)CCC(c2ccc(Cl)cc2)=C(CN2CCN(c3ccc(C(=O)NS(=O)(=O)c4ccc(N[C@H](CCN5CCOCC5)CSc5ccccc5)c(S(=O)(=O)C(F)(F)F)c4)cc3)CC2)C1 + CCCS(=O)(=O)Nc1ccc(F)c(C(=O)c2c[nH]c3ncc(Cl)cc23)c1F [PLX4720] (first compound 0.4 µM, partner dose 0.08 µM)",217%,267%,210%,219%,55.7%,99.4%,354%,278%
"NC1(c2ccc(-c3nc4ccn5c(=O)[nH]nc5c4cc3-c3ccccc3)cc2)CCC1 + Clc1ccc(Nc2nnc(Cc3ccncc3)c3ccccc23)cc1 [vatalanib] (first compound 0.4 µM, partner dose 2 µM)",70.3%,132%,124%,186%,99.9%,98%,127%,130%
"Cn1cnc2c(F)c(Nc3ccc(Br)cc3Cl)c(C(=O)NOCCO)cc21 [selumetinib] + COc1ccc(C2=N[C@@H](c3ccc(Cl)cc3)[C@@H](c3ccc(Cl)cc3)N2C(=O)N2CCNC(=O)C2)c(OC(C)C)c1 [Nutlin-3] (first compound 0.015 µM, partner dose 0.1 µM)",183%,132%,47.2%,208%,79.1%,303%,127%,117%
"CS(=O)(=O)c1ccc(C(=O)Nc2ccc(Cl)c(-c3ccccn3)c2)c(Cl)c1 [vismodegib] + O=C(O)[C@@H]1[O][Sb](=[O])([O][Sb]2(=[O])[O][C@H]([C@H](O)CO)[C@H](O)[C@H](C(=O)O)[O]2)[O][C@H]([C@H](O)CO)[C@@H]1O [stibogluconate] (first compound 1 µM, partner dose 2 µM)",69.9%,41.9%,61.3%,92.9%,48.5%,133%,36.4%,117%
"CS(=O)(=O)c1ccc(C(=O)Nc2ccc(Cl)c(-c3ccccn3)c2)c(Cl)c1 [vismodegib] + C#Cc1cccc(Nc2ncnc3cc(OCCOC)c(OCCOC)cc23)c1 [erlotinib] (first compound 1 µM, partner dose 0.8 µM)",98.3%,818%,123%,276%,71.3%,93.8%,130%,355%
"Cn1cnc2c(F)c(Nc3ccc(Br)cc3Cl)c(C(=O)NOCCO)cc21 [selumetinib] + NC1(c2ccc(-c3nc4ccn5c(=O)[nH]nc5c4cc3-c3ccccc3)cc2)CCC1 [MK2206] (first compound 0.015 µM, partner dose 0.4 µM)",238%,178%,135%,88.3%,86.3%,83.7%,68.2%,169%
"COc1ccc(C2=N[C@@H](c3ccc(Cl)cc3)[C@@H](c3ccc(Cl)cc3)N2C(=O)N2CCNC(=O)C2)c(OC(C)C)c1 [Nutlin-3] + COc1ccc(Cl)c(Nc2nc3ccccc3nc2NS(=O)(=O)c2cccc(NC(=O)C(C)(C)N)c2)c1 [XL147] (first compound 0.1 µM, partner dose 0.8 µM)",159%,28.1%,119%,119%,83.2%,106%,121%,63%

# Reprinted from the results shown for reference:
SMILES,cleaved PARP positive nuclei fraction (MZ2-MEL),cleaved PARP positive nuclei fraction (MeWo),cleaved PARP positive nuclei fraction (RPMI7951),cleaved PARP positive nuclei fraction (RVH-421),cleaved PARP positive nuclei fraction (SkMel28),cleaved PARP positive nuclei fraction (SkMel2),cleaved PARP positive nuclei fraction (SkMel30),cleaved PARP positive nuclei fraction (UACC62)
"C[C@@H](N)c1ccc(C(=O)Nc2ccnc3[nH]ccc23)cc1 + NC(=O)c1ccc(N(C(N)=O)c2c(F)cccc2F)nc1-c1ccc(F)cc1F [VX702] (first compound 0.4 µM, partner dose 0.4 µM)",49.4%,242%,44.2%,373%,48.6%,138%,29.6%,97.1%
"CC(=O)O[C@@]12CO[C@@H]1C[C@H](O)[C@@]1(C)C(=O)[C@H](O)C3=C(C)[C@@H](OC(=O)[C@H](O)[C@@H](NC(=O)OC(C)(C)C)c4ccccc4)C[C@@](O)([C@@H](OC(=O)c4ccccc4)[C@H]21)C3(C)C [Docetaxel] + C=CCNC1=C2C[C@@H](C)C[C@H](OC)[C@H](O)[C@@H](C)/C=C(\C)[C@H](OC(N)=O)[C@@H](OC)/C=C\C=C(/C)C(=O)NC(=CC1=O)C2=O [Tanespimycin] (first compound 0.0001 µM, partner dose 0.002 µM)",950%,453%,538%,72.2%,207%,1070%,428%,598%
